Measurements published in PMC11166663.

Amino acid sequences for entries named in this document (tags omitted).
UniProt Q9Y4B6: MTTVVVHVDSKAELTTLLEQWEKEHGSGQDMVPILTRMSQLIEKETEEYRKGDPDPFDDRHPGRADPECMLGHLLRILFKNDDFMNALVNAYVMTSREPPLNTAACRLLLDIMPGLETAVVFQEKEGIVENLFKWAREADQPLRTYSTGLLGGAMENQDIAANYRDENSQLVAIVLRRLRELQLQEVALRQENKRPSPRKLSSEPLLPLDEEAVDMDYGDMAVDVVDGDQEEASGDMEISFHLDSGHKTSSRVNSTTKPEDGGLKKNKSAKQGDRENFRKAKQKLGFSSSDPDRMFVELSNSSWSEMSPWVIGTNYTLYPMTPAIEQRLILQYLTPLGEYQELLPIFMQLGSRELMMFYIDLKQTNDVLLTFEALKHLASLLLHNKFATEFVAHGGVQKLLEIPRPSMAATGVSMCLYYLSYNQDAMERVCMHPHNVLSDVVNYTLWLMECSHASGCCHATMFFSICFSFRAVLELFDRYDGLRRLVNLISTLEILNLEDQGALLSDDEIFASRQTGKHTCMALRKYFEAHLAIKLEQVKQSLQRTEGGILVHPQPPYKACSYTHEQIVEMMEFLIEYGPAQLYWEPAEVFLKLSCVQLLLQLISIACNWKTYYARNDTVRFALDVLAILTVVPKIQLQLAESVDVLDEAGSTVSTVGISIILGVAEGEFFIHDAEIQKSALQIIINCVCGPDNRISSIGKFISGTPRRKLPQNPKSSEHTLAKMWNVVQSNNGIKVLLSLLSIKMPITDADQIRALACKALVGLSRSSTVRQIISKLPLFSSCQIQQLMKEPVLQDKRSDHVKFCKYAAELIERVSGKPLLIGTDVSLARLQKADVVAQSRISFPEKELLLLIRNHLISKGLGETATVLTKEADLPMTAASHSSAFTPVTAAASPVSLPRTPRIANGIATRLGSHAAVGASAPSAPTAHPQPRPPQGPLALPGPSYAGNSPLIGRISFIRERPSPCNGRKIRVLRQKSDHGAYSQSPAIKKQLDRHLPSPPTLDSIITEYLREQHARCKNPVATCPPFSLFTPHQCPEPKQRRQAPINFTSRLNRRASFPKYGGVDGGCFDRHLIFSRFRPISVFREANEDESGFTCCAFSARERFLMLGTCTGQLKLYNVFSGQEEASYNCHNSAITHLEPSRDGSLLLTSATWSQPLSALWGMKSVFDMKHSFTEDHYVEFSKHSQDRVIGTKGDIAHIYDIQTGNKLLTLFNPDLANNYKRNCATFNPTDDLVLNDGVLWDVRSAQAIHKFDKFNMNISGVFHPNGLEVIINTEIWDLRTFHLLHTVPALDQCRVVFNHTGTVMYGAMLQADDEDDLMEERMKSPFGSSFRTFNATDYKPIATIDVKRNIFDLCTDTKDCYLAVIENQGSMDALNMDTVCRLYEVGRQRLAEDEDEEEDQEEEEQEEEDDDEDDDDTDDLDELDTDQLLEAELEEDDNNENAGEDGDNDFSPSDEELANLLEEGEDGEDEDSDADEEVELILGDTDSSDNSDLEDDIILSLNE

Molecular target: Rheb (bait of the Rheb-associated immunoprecipitated complex analysed by mass spectrometry) (UniProt Q15382)
Experiment: affinity purification with mass spectrometry; mass spectrometry of the Rheb-associated immunoprecipitated complex; cells and antibody not stated

DDB1-CUL4-associated factor 1 (DCAF1), endogenous (from UniProt Q9Y4B6 1-1507)
binding: binds

CUL4a, endogenous (from UniProt Q13619 1-759)
binding: binds

DDB1, endogenous (from UniProt Q16531 1-1140)
binding: binds

Results are given in words; binding and its absence hold for the method and conditions named. In cells and extracts the contact can be indirect. These calls come from enrichment with a bait or labelling near it, and not all partners need be listed.
